Laboratory results: PubChem BioAssay AID1224830 (NIAID, 2016)
Here is a random part of about 18,000 deposited reagents. About 2,900 of them (16%) were called active. 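Calls are made per well; low scores hint the gene aids the LPS response, high scores that it dampens it.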 Repeated entries: four replicate wells of each siRNA pool.

Purpose: 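Host factors that control LPS-induced TNF expression in human macrophages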 (primary screen)
System: human THP-1 monocytic leukaemia cells, TNF dual-luciferase reporter clone, PMA-differentiated to macrophage-like cells
Reagents: siRNA pool against human genes, 50 nM
Time to read-out: LPS for 4 h, given about 3 days after siRNA transfection
Challenge: bacterial LPS (TLR4 ligand), 10 ng/ml
Measured: 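TNF firefly reporter luminescence divided by renilla, normalised to the plate median, then turned into a robust z-score for each replicate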
Reading the numbers: TNF reporter robust z-score: higher = stronger TNF reporter response to LPS
Active means: 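a well is active when its z-score exceeds 2.8 or falls below -1.5; control wells carry no call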

target gene	TNF reporter robust z-score	Call
KRTAP4-12	-0.45	inactive
KRTAP4-12	-0.01	inactive
KRTAP4-12	0.53	inactive
KRTAP4-12	0.62	inactive
IFIT3	0.73	inactive
IFIT3	-0.23	inactive
IFIT3	-0.5	inactive
IFIT3	0.54	inactive
MED14	-0.59	inactive
MED14	-0.79	inactive
MED14	-0.9	inactive
MED14	-0.36	inactive
ZNF420	0.23	inactive
ZNF420	-0.52	inactive
ZNF420	-0.45	inactive
ZNF420	-0.12	inactive
GLYAT	0.13	inactive
GLYAT	1.82	inactive
GLYAT	2.37	inactive
GLYAT	2.27	inactive

Continued:
target gene	TNF reporter robust z-score	Call
SLC12A7	1.04	inactive
SLC12A7	1.62	inactive
SLC12A7	0.18	inactive
SLC12A7	1.59	inactive
FARP2	1.04	inactive
FARP2	0.88	inactive
FARP2	0.43	inactive
FARP2	0.27	inactive
CXCL17	0.03	inactive
CXCL17	-1.27	inactive
CXCL17	-0.6	inactive
CXCL17	-0.33	inactive
ARMC6	0.2	inactive
ARMC6	1.29	inactive
ARMC6	0.43	inactive
ARMC6	0.84	inactive
PLEKHB1	-0.35	inactive
PLEKHB1	-0.73	inactive
PLEKHB1	0.72	inactive
PLEKHB1	-0.02	inactive
TNFSF13	-0.02	inactive
TNFSF13	0.62	inactive
TNFSF13	1.25	inactive
TNFSF13	0.66	inactive
SLC25A52	0.52	inactive
SLC25A52	0.99	inactive
SLC25A52	0.31	inactive
SLC25A52	1.1	inactive
